Measurements as given in the MegaScale stability set (Tsuboyama et al. 2023).

B1: 6NMW (parent)
chain: QGDIVVALYPYDGIHPDDLSFKKGEKMKVLEEHGEWWKAKSLLTKKEGFIPSNYVAKLN

Variants of: B1
Experiment: folding stability dG (cDNA display proteolysis); higher = more stable
Settings: PBS, room temperature

Variant | folding stability dG [kJ/mol]
D12E | 18.1
G13A | 17.8
I14R | 15.6
H15T | 12.1
P16E | 13.5
K26R | 16.8
M27L | 15.5
K28Q | 18.4
V29I | 18.8
E31N | 10.1
E31S | 15.7
E32S | 16
H33E | 10.2
H33S | 13.3
E35D | 16.1
K38L | 18.6
K40H | 11.7
L43T | 14.2
K45G | 20.7
K46Q | 14
E47T | 16.9
F49Y | 15.6
